This passage reports binding results from US20230365705A1.

Sequences of proteins named here, by UniProt entry; tags and fusion partners are left off. A change or cut given only in a name is not applied to a line headed by its entry. Residues count along the entry.
UniProt Q9NPY3: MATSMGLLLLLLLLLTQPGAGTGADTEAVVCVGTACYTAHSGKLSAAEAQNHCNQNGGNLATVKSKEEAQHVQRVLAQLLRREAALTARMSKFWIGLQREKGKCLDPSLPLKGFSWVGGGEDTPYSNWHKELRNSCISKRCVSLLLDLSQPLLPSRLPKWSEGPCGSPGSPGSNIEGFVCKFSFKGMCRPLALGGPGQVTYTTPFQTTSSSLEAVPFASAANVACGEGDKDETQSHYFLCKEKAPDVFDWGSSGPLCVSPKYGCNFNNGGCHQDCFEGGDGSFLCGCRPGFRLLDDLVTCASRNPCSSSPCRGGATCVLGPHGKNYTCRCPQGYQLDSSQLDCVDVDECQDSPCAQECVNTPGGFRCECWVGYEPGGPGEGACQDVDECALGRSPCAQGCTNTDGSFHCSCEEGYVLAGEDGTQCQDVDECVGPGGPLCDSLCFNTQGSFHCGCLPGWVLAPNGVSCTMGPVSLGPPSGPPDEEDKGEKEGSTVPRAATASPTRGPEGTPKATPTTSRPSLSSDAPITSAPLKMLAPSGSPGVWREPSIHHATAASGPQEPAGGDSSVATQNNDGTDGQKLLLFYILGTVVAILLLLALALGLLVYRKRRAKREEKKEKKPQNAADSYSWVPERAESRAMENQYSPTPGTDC
Human CD93 on cells (human CD93 expressing CHO cells; HUVEC, U937 and KG1a cells): residues 22-652 of Q9NPY3
Human CD93 recombinant protein (Sino Biological Inc, Catalog #12589-H08H): residues 22-580 of Q9NPY3

Positions count from the first letter of the chain named. These are yes or no findings as the source states them, for the method shown. Some entries that bind do so weakly or less than the wild type.

Assay [1] deals with cynomolgus CD93 protein (made in-house) (cynomolgus). The experiment in a line: BLI (Octet QKe), biotinylated CD93 on streptavidin sensors.
For assay [2] the target is unchanged. The experiment in a line: summary table, column 'Cyno Cross (ELISA)'.
For assay [3] the target is unchanged. The assay is described as follows: summary table; method not given.
For assay [4] the target is unchanged. The assay is described as follows: ELISA, antigen coated at 1 µg/mL.
For assay [5], the target named is Human CD93 recombinant protein (Sino Biological Inc, Catalog #12589-H08H) (human) (UniProt Q9NPY3). The experiment in a line: ELISA, antigen coated at 1 µg/mL.
The target is the same in assay [6]. The experiment in a line: ELISA (legend of FIG. 53E and 53F).
For assay [7], the target named is cynomolgus CD93 protein (made in-house) (cynomolgus). The experiment in a line: ELISA (legend of FIG. 53F).
Assay [8] addresses Human CD93 on cells (human CD93 expressing CHO cells; HUVEC, U937 and KG1a cells) (human) (UniProt Q9NPY3). The assay is described as follows: flow cytometry on human CD93 expressing CHO cells (10 µg/ml by the text).
The target of assay [9] is Human CD93 recombinant protein (Sino Biological Inc, Catalog #12589-H08H) (human) (UniProt Q9NPY3). The assay is described as follows: ELISA, His-tagged human CD93 coated at 1 µg/mL.
Assay [10] shares this target. The experiment in a line: BLI (Octet QKe), biotinylated human CD93 on streptavidin sensors.
In assay [11] the target is Human CD93 on cells (human CD93 expressing CHO cells; HUVEC, U937 and KG1a cells) (human) (UniProt Q9NPY3). The experiment in a line: flow cytometry on KG1a cells.
Assay [12] shares this target. The assay is described as follows: flow cytometry on human CD93 expressing CHO cells; antibody stored 0, 2 or 4 weeks at 40 °C.
For assay [13] the target is unchanged. The experiment in a line: flow cytometry on human CD93 expressing CHO cells, 10 µg/ml.
Assay [14] has the same target. The assay is described as follows: flow cytometry on HUVEC cells.

B1: 16B6 (antibody, V domains shown)
VH: QVQLQQSGPELVKPGASVKISCKASGYAFSRSWMNWVKQRPGKGLEWIGWIYPGDGDTNYNGKFKGKATLTADKSSSTAYMQLSSLTSEDSAAYFCARSATLPYWYFDVWGAGTTVTVSS
VL: DIKMTQSPSSMYASLGERVTITCKASQDIKSYLSWYQQKPWKSPKTLIYYATNLADGVPSRFSGSGSGQDYSLTISSLGSDDTATYYCLQHVESPWTFGGGTKLEIK
On to B1, for which the binding result in [1] and in [2] was “binds” each time.

B2: 7F3 (hybridoma) (antibody, IgG1, V domains shown)
VH: QVQLQQSGADLVRPGASVKLSCKASGYTFTDYEMHWVKQTPVYGLEWIGGIDPETGDTAYNQNFKGKATLTADKSSSAAYMELRSLTSEDSAVYYCTNYGNLYYYAMDYWGQGTSVTVSS
VL: ENVLTQSPAIMSASPGEKVTMTCRASSSVSSSYLHWYQQKSGASPKLWIYSTSNLAFGVPARFSGSGSGTSYSLTISSVEAEDAATYYCQQYSGYPLTFGSGTKLEIK
With B2, the binding result in assay [1], in [3] and in assay [2] was “binds” in each case.

B3: 7F3-hIgG1 (recombinant chimeric 7F3) (antibody, V domains shown)
VH: B2 VH
VL: B2 VL
As to B3, the binding result in [4], in assay [5], in assay [6], in [7], in assay [8] and in assay [9] was “binds” in each case.

B4: 5H9 (antibody, IgG2a, V domains shown)
VH: QVQLQQSGPDLVKPGASVKISCKASGYAFSTYWMNWVKQRPGKGLEWIGRIFPGDGDANYNGKFKGKATLTADKSSSTAYMQLSSLTSEDSAVYFCTRTGAAYDFDPFPYWGQGTLVTVSA
VL: DIVMTQAAFSNPVTLGTSASISCSSSKSLLHSNGVTYLYWYLQRPGQSPQLLIYRMSNLASGVPDRFSGSGSGTDFTLRISRVEAEDVGIYYCAQMLERPFTFGSGTKLEIK
With B4, the binding entry in assay [1] and in assay [2] was “binds” throughout.

B5: 17A7 (antibody, V domains shown)
VH: B4 VH with D10E, A24G, A58T, N59D, N61D, S77N, T97A, D104E
VL: B4 VL with S26T, N33S, V35I, I90V
B5: the binding entry in assay [1] and in assay [2] was “binds” throughout.

B6: 16G9 (antibody, V domains shown)
VH: EVQLQQSGPELVKPGASVKMSCKASGYTFTDYYMNWVKQSHGKSLEWIGRVNPNNGGKTYNQKFKGKATLTVDKSLSTAYMQLNSLTSEDSAVYYCARWRLRPVDYGMDYWGQGTSVTVSS
VL: DIVLTQSPASLAVSLGQRATISCRASQSVSTSSYSYMHWYQQKPGQPPKLLIKYASNLESGVPARFSGSGSGTDFTLNIHPVEEEDTATYYCQHSWEIPFTFGSGTKLEIK
Turning to B6, the binding entry in assay [1] and in [2] was “binds” throughout.

B7: 17B10 (hybridoma) (antibody, V domains shown)
VH: QVQLQQSGPELVKPGASVKISCKASGYAFSSYWLNWVKQRPGKGLEWFGRIYPGDGDTDYNGKFKGKATLTADKSSSTAYMQLRSLTSEDSAVYFCVRGDGYWAMDYWGQGTSVTVSS
VL: DIVMTQAAFSNPVTLGTSASISCRFSKSLLHSNGITYLYWYLQKPGQSPQLLIYQMSNLASGVPDRFSSSGSGTDFTLRISRVEAEDVGVYYCAQNLELPWTFGGGTKLEIK
For B7, the binding result in assay [1], in assay [3] and in assay [2] was “binds” each time.

B8: h16E4 (humanized 16E4, VH4+VL6) (antibody, V domains shown)
VH: QVQLVQSGAEVKKPGASVKVSCKASGYTFTSYWMHWVRQAPGQGLEWMGEIDPSASYTYYNQKFKGRVTMTRDKSSSTVYMELSSLTSEDSAVYYCARSVYYGNKYFDVWGAGTTVTVSS
VL: DIQMTQSPSTLSASVGDRVTITCKASQSVDYAGDSYMNWYQQKPGKAPKLLIYAASNLESGVPSRFSGSGSGTEFTLTISSLQPDDFATYYCQQTNEDPRTFGGGTKLEIK
In the case of B8, the binding entry in assay [10], in [11] and in assay [12] was “binds” throughout.

B9: 19E12 (antibody, V domains shown)
VH: QVQLQQSGAELVRPGASVKLSCKASGYTFTDYEMHWVRQTPVHGLEWIGGIDPETGGTAYNQKFKGKATLTADKSSSTAYMELRSLTSEDSAVYYCTRGAWFAYWGQGTLVTVSA
VL: QAVVTQESALTTSPGETVTLTCRSSTGAVTTSNSANWVQEKPDHLFTGLIGGTNNRAPGVPARFSGSLIGDKAALTITGAQTEDEAIYFCALWYNNHFVFGGGTKLTVL
In the case of B9, the binding result in assay [1] and in assay [2] was “binds” throughout.

B10: h7F3 (humanized 7F3, VH3+VL3) (antibody, human IgG1, V domains shown)
VH: QVQLVQSGAEVKKPGASVKVSCKASGYTFTDYEMHWVRQAPGQGLEWMGGIDPETGDTAYNQNFKGRVTMTTDTSTSTAYMELRSLTSDDTAVYYCTNYGNLYYYAMDYWGQGTSVTVSS
VL: EIVLTQSPSSLSASVGDRVTITCRASSSVSSSYLHWYQQKPGKAPKLLIYSTSNLAFGVPSRFSGSGSGTSYTFTISSLQPEDIATYYCQQYSGYPLTFGSGTKLEIK
As to B10, the binding result in assay [10], in [11], in assay [13], in [14] and in assay [12] was “binds” each time.

B11: 12H4 (antibody, V domains shown)
VH: EVQLQQSGPELVKPGASVKVSCKASGYTFTDYYIHWVKQRPGQGLEWIGEIYPGSDDAYYNEKFKGKATLTADKSSSTAYMQLSSLTSEDSAVYFCTRETTATAYWGQGTLVTVSA
VL: QIVLTQSPAIMSASPGEKVTITCSASSSVSLIYWFQQKPGTSPKLWIYSTSNLASGVPARFSGSGSGTSYSLTISRMEAEDAATYYCQQRSGYPPTFGGGTKLEIK
Take B11: the binding result in assay [1] and in assay [2] was “binds” in each case.

B12: 17E6 (antibody, V domains shown)
VH: EVQLQQSGPELVKPGASVKMSCKASGYTFTSYVIHWVKQKPGQGLEWIGYINPYSDYTQYNEKFKGKATLTSDKSSSTAYMELSSLTSEDSAVYSCARRADGNPYAMDYWGQGTSVTVSS
VL: DIVMTQSHKFMSTSVGDRVSTTCKASQDVSTAVVWYQQKPGQSPKLLIYSASYRYTGVPDRFTGSGSGTDFTFTITSVQAEDLAVYYCQQHYSTPFTFGSGTKLEIK
For the molecule B12, the binding entry in [1] and in assay [2] was “binds” each time.

B13: 20C7 (antibody, V domains shown)
VH: B12 VH with K13N, S31A, I34M, N52F, S55N, Y57G, Q59E, S95Y, A100T, A106T
VL: B12 VL with T21I, V34A, Y49H, S65R, T76S
With B13, the binding result in assay [1] and in assay [2] was “binds” each time.

B14: 19B5 (antibody, V domains shown)
VH: DVNLVESGGGLVKLGGSLKLSCAASGFTFSNYYMSWVRQSPEKRLEWVATISNNGDSTYYLDTVKGRFTISRDSAENTLYLQMSSLISEDTAVYYCTRVGTGFTYWGQGTLVTVSA
VL: DIVLTQSPATLSVTPGDSVSLSCRASQSINNYLHWYQQRSHESPRLLIKFASQSISDIPSRFSGSGSGTDFTLSINSIETEDFGMYFCQQSNSWPLTFGAGTKLELK
With B14, the binding result in [1] and in assay [2] was “binds” each time.
